Results taken from publication PMC7901769.
No constants are given. Whether binding was seen depends on the method and setting. Some results given as binding are weak or reduced against the parent protein; the word gives no strength.

Protein sequences, listed by entry. Tags and fused reporters are not part of them.
UniProt O00399: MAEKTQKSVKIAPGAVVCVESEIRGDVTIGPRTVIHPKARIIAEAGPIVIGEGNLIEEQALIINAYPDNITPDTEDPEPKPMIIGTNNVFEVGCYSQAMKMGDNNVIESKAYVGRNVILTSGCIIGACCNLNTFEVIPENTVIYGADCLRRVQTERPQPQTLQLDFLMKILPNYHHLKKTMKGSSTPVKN

Experiments:
[1] = biological target: T1, human TMEM39A second cytoplasmic loop domain (337-420 a.a.) (human) (UniProt Q9NV64); assay: two-hybrid; verification by co-transformation of bait (pGBKT7) and prey (pGADT7) vectors, yeast colony growth
T1 sequence: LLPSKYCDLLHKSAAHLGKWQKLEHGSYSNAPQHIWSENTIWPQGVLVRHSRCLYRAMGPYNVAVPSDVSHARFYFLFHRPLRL

[2] = biological target: T1, human TMEM39A second cytoplasmic loop domain (337-420 a.a.) (human); assay: two-hybrid; library screen: TMEM39A loop domains in pGBKT7 as bait against a normalized universal human cDNA library (Clontech), Matchmaker Gold Yeast Two-Hybrid System

binding [1]: binds
binding [2]: binds
Substance: human DCTN6 full length (1-190 a.a.) (from UniProt O00399 1-190)
